{"source": "PubChem BioAssay AID720518", "about": "(National Center for Advancing Translational Sciences (NCATS), 2013)", "note": "The inconclusive results got no clear call from the source; some entries with a clear call stand among them for comparison. A potency beside an inconclusive call is a rough fit, not a confirmed value. The source made the active and inactive calls. Calls follow the shape of the full dose curve. Potency is read from the fitted curve at half-maximal effect.", "data": [{"experiment": "qHTS for Inhibitors of Cell Surface uPA Generation: Wild-type Protective Antigen (WT-PrAg) Counterscreen for Cherry-picked Compounds; as to activity (protection): 0% is about no effect", "settings": "cells, WT protective antigen toxicity counterscreen; series mostly up to 115 µM; activity (protection): at the top concentration", "values": [{"smiles": "COc1ccc(C(=O)N2CCN(c3ccc(C(C)=O)cc3)CC2)cc1S(=O)(=O)N1CCCC1", "activity (protection)": "inactive: -0.95%"}, {"smiles": "C=C(C)c1cccc(C(C)(C)NC(=O)Nc2cc(C)ccn2)c1", "Potency": "inconclusive: 14.7 µM [activator, partial curve]"}, {"smiles": "C=CCOC(=O)C1=C[C@H](c2ccc(C(F)(F)F)cc2)[C@@H](CCCO)[C@H](OCC)O1", "activity (protection)": "inactive: -1.89%"}, {"smiles": "CCCn1c(N)c(C(=O)CSc2nnc(C3CC3)n2Cc2ccccc2)c(=O)[nH]c1=O", "Potency": "inconclusive: 14.7 µM [activator, full curve]"}, {"smiles": "O=C1[C@H]2[C@@H](c3ccc(F)cc3)N3C(=O)N(c4ccccc4)C(=O)[C@@]3(Cc3ccc(Cl)cc3)[C@H]2C(=O)N1C1CCCCC1", "Potency": "inconclusive: 2.61 µM [activator, full curve]"}, {"smiles": "Cc1ccccc1N1C(=O)C(Cc2ccc(F)cc2)S/C1=C(\\C#N)C(N)=O", "note": "(stereo not given)", "Potency": "inconclusive: 23.3 µM [activator, full curve, poor fit]"}, {"smiles": "O=C(Nc1ccnn1C1CCN(CCCC2CCCC2)CC1)c1ccccc1", "activity (protection)": "inactive: -2.33%"}, {"smiles": "COc1cc2c(OC(C)=O)c3c(c(-c4ccc5c(c4)OCO5)c2cc1OC)C(=O)OC3", "Potency": "inconclusive: 3.69 µM [activator, partial curve]"}, {"smiles": "COC(=O)[C@]1(Cc2ccccc2)N[C@H](CN(C)C(=O)Nc2ccccc2)[C@@H]2C(=O)N(Cc3ccccc3)C(=O)[C@@H]21", "Potency": "inconclusive: 14.7 µM [activator, full curve]"}, {"smiles": "Fc1ccc(NC(=S)N2CCCC(c3ccccc3)=N2)cc1", "Potency": "inconclusive: 14.7 µM [activator, full curve]"}, {"smiles": "C=CCNC(=S)NCC=C", "activity (protection)": "inactive: 1.06%"}, {"smiles": "CN(C)c1cccc(Oc2nc3c(c(=O)n(C)c(=O)n3C)n2C)c1", "Potency": "inconclusive: 23.3 µM [activator, full curve, poor fit]"}, {"smiles": "O=C(Nc1ccc(N2CCOCC2)cc1)c1ccc(Cl)c(S(=O)(=O)N2CCCC2)c1", "activity (protection)": "inactive: -0.904%"}, {"smiles": "C[C@H]1CN([C@@H](C)CO)C(=O)c2cccc(NC(=O)c3cnccn3)c2O[C@@H]1CN(C)S(=O)(=O)c1ccc(F)cc1", "Potency": "inconclusive: 52.1 µM [activator, partial curve]"}, {"smiles": "C=CS(=O)(=O)c1ccc(Oc2ccc(S(=O)(=O)C=C)cc2)cc1", "Potency": "active: 65.6 µM"}, {"smiles": "CCc1ccc(S(=O)(=O)NCCc2cn3cccc(C)c3n2)s1", "activity (protection)": "inactive: -0.94%"}, {"smiles": "Cc1ccc(Nc2cc(C)c3ccc(O)cc3n2)cc1C", "Potency": "inconclusive: 5.85 µM [activator, full curve]"}, {"smiles": "O=C1C=CC2(C=C1)O[C@H](Cc1ccccc1)[C@@H](Cc1ccccc1)O2", "Potency": "inconclusive: 36.9 µM [activator, single point]"}, {"smiles": "CCOC(=O)c1c(NC(=O)COc2ccccc2C#N)sc2c1CC(C)(C)NC2(C)C", "Potency": "inconclusive: 2.33 µM [activator, full curve, poor fit]"}, {"smiles": "C=C1C(=O)OC2C=C(CO)C3OC3C3OC3(C)CC(OC(=O)/C(=C/C)COC(C)=O)C12", "note": "(stereo not given)", "Potency": "inconclusive: 58.5 µM [activator, single point]"}, {"smiles": "CC(C)C1Oc2ccccc2N(CC(=O)NC2CCCCC2)C1=O", "note": "(stereo not given)", "Potency": "active: 36.9 µM"}, {"smiles": "NC(=O)CC(NC(=O)Cc1cccc2ccccc12)c1ccc(N2CCC(Cc3ccccc3)CC2)c([N+](=O)[O-])c1", "note": "(stereo not given)", "Potency": "inconclusive: 9.27 µM [activator, partial curve]"}, {"smiles": "O=C(CN1C(=O)CSCC1=O)NCc1ccc(F)cc1", "activity (protection)": "inactive: 0.538%"}, {"smiles": "COc1cccc(CC(=O)n2nc(N)c3cc4ccc(OC)cc4nc32)c1", "Potency": "inconclusive: 1.85 µM [activator, full curve, poor fit]"}, {"smiles": "COC(=O)c1ccccc1NC(=O)Nc1nnc(N2CCCCC2C)s1", "note": "(stereo not given)", "Potency": "active: 58.5 µM"}, {"smiles": "CCN(CC)CC(=O)Nc1sc2c(c1C(=O)c1ccccc1OC)CCC2", "Potency": "active: 9.27 µM"}, {"smiles": "O=C(/C=C/c1ccccc1)CCN1CCOCC1", "Potency": "inconclusive: 58.5 µM [activator, single point]"}, {"smiles": "CN(C)S(=O)(=O)c1cccc(NC(=O)CSc2nc3ccccc3n2-c2ccccc2)c1", "Potency": "inconclusive: 20.7 µM [activator, full curve]"}, {"smiles": "O=C(Cn1cnc2c(OCc3ccccc3)ncnc21)NCCCN1CCCC1=O", "activity (protection)": "inactive: -1.87%"}, {"smiles": "Cc1nc2ccccc2c2oc(C(=O)Nc3ccc4c(c3)OCCO4)cc12", "Potency": "inconclusive: 14.7 µM [activator, partial curve]"}]}]}
